Results are given in words; binding and its absence hold for the method and conditions named. In cells and extracts the contact can be indirect. Binding can be weak; no strength is given.
biological target: GST-Tom70 (cytosolic domain) (yeast) (UniProt P07213); experiment: pull-down; GST-fusion proteins on Glutathione Sepharose 4B beads, blocked with reticulocyte lysate, incubated 1 h at 4 °C with radiolabeled proteins, 0.2 mM ATP every 30 min; GST basic buffer (20 mM HEPES, pH 7.25, 100 mM NaCl, 1.5 mM MgCl2); SDS-PAGE and autoradiography; only the target purified

By UniProt entry, the sequences of proteins in these tests, tags left out. Where a name states a change or a piece, a line headed by the entry shows the natural chain unless it says otherwise.
UniProt P07213: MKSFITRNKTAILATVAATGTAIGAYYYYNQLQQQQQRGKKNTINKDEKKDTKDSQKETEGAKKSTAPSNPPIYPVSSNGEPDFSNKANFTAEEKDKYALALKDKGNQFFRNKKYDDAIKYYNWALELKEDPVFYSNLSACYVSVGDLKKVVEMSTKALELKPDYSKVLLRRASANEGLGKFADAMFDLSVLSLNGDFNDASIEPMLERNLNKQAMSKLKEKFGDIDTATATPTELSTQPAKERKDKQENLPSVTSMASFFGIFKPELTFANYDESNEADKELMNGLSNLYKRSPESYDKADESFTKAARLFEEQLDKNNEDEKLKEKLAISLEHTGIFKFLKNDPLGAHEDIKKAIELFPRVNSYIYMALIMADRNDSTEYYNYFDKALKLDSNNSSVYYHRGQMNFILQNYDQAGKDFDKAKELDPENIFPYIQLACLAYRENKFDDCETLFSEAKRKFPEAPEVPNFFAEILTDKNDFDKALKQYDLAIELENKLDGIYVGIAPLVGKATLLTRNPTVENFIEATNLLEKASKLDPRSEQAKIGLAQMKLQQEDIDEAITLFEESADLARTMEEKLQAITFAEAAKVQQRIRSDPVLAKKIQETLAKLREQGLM
UniProt Q9BXM7: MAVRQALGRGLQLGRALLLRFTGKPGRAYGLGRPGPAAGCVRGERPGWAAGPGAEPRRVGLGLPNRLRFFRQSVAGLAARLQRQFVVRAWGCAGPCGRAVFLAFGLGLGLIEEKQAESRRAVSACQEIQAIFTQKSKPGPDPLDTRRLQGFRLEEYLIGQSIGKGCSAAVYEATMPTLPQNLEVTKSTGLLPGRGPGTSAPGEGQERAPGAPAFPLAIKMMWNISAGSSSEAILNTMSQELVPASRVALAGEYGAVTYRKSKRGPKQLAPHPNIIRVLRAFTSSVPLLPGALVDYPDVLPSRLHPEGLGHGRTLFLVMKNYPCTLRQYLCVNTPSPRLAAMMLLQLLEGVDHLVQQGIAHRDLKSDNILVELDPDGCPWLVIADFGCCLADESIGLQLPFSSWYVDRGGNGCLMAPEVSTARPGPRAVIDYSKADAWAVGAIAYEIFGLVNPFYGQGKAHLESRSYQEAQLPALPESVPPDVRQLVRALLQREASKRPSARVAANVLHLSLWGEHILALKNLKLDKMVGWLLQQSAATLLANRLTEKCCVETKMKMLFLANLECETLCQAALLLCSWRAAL

Row | binding | Substance
1 | binds | PINK1 (human, native, radiolabeled) (from UniProt Q9BXM7 1-581)
2 | binds | PINK1 fragment 1–120 (radiolabeled) (from UniProt Q9BXM7 1-120) (domain or fragment)
3 | binds | PINK1 fragment 35–120 (radiolabeled) (from UniProt Q9BXM7 35-120) (domain or fragment)
